Laboratory results as given in the supplement of paper PMC7661543.
Differences between knockout arms are mostly noise.

Test system: HCC-38
Experiment: relative cell number vs DMSO control (72 h) (% of DMSO); higher = less growth inhibition (more cells)
Method: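 QMAP-Seq: a pool of 5 breast cancer cell lines (ZR-75-1, SKBR3, HCC-38, MDA-MB-231, BT-20), each carrying 12 doxycycline-inducible Cas9 sgRNA perturbations (11 knockouts plus non-targeting sgNT), was treated with compounds for 72 h at four 10-fold doses (10 nM-10 uM or 1 nM-1 uM range). Barcodes were amplified and sequenced, and cell number was interpolated from 293T spike-in standard curves. The result is expressed as % of the median of DMSO wells. Two biological replicates.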

C=CCc1cccc(/C=N/NC(=O)CN2CCN(Cc3ccccc3)CC2)c1O [PAC1]
Settings	relative cell number
sgRNA knockout: sgATF3, 10 nM	99.3
sgRNA knockout: sgATF3, 100 nM	98.1
sgRNA knockout: sgATF3, 1000 nM	89
sgRNA knockout: sgATF3, 10000 nM	31.4
sgRNA knockout: sgATF4, 10 nM	111
sgRNA knockout: sgATF4, 100 nM	101
sgRNA knockout: sgATF4, 1000 nM	93.1
sgRNA knockout: sgATF4, 10000 nM	32.8
sgRNA knockout: sgATF6, 10 nM	105
sgRNA knockout: sgATF6, 100 nM	75.2
sgRNA knockout: sgATF6, 1000 nM	97.5
sgRNA knockout: sgATF6, 10000 nM	32.9
sgRNA knockout: sgATG7, 10 nM	102
sgRNA knockout: sgATG7, 100 nM	98.8
sgRNA knockout: sgATG7, 1000 nM	85.3
sgRNA knockout: sgATG7, 10000 nM	35.6
sgRNA knockout: sgERN1, 10 nM	94.6
sgRNA knockout: sgERN1, 100 nM	85.4
sgRNA knockout: sgERN1, 1000 nM	91.9
sgRNA knockout: sgERN1, 10000 nM	36.1
sgRNA knockout: sgHSF1, 10 nM	96.5
sgRNA knockout: sgHSF1, 100 nM	77
sgRNA knockout: sgHSF1, 1000 nM	72.1
sgRNA knockout: sgHSF1, 10000 nM	30.9
sgRNA knockout: sgHSF2, 10 nM	100
sgRNA knockout: sgHSF2, 100 nM	94.6
sgRNA knockout: sgHSF2, 1000 nM	93
sgRNA knockout: sgHSF2, 10000 nM	30.9
sgRNA knockout: sgKEAP1, 10 nM	101
sgRNA knockout: sgKEAP1, 100 nM	87.3
sgRNA knockout: sgKEAP1, 1000 nM	99.4
sgRNA knockout: sgKEAP1, 10000 nM	23.9
sgRNA knockout: sgNFE2L2, 10 nM	105
sgRNA knockout: sgNFE2L2, 100 nM	103.3
sgRNA knockout: sgNFE2L2, 1000 nM	86.2
sgRNA knockout: sgNFE2L2, 10000 nM	29.17
sgRNA knockout: sgSLC35F2, 10 nM	104
sgRNA knockout: sgSLC35F2, 100 nM	94.19
sgRNA knockout: sgSLC35F2, 1000 nM	93.8
sgRNA knockout: sgSLC35F2, 10000 nM	30.2
sgRNA knockout: sgXBP1, 10 nM	95
sgRNA knockout: sgXBP1, 100 nM	102
sgRNA knockout: sgXBP1, 1000 nM	91.6
sgRNA knockout: sgXBP1, 10000 nM	30.9

COC(=O)Nc1nc2cc(C(=O)c3ccccc3)ccc2[nH]1 [Mebendazole]
Settings	relative cell number
sgRNA knockout: sgATF3, 10 nM	92.7
sgRNA knockout: sgATF3, 100 nM	82.5
sgRNA knockout: sgATF3, 1000 nM	20.4
sgRNA knockout: sgATF3, 10000 nM	19.7
sgRNA knockout: sgATF4, 10 nM	90.5
sgRNA knockout: sgATF4, 100 nM	84.6
sgRNA knockout: sgATF4, 1000 nM	17.6
sgRNA knockout: sgATF4, 10000 nM	19.3
sgRNA knockout: sgATF6, 10 nM	81.3
sgRNA knockout: sgATF6, 100 nM	73.2
sgRNA knockout: sgATF6, 1000 nM	20.6
sgRNA knockout: sgATF6, 10000 nM	18.4
sgRNA knockout: sgATG7, 10 nM	96.2
sgRNA knockout: sgATG7, 100 nM	85.1
sgRNA knockout: sgATG7, 1000 nM	21.7
sgRNA knockout: sgATG7, 10000 nM	21.3
sgRNA knockout: sgERN1, 10 nM	96
sgRNA knockout: sgERN1, 100 nM	85.7
sgRNA knockout: sgERN1, 1000 nM	20.2
sgRNA knockout: sgERN1, 10000 nM	23.8
sgRNA knockout: sgHSF1, 10 nM	103
sgRNA knockout: sgHSF1, 100 nM	70.8
sgRNA knockout: sgHSF1, 1000 nM	23.7
sgRNA knockout: sgHSF1, 10000 nM	25.3
sgRNA knockout: sgHSF2, 10 nM	100
sgRNA knockout: sgHSF2, 100 nM	82.8
sgRNA knockout: sgHSF2, 1000 nM	20.9
sgRNA knockout: sgHSF2, 10000 nM	21.2
sgRNA knockout: sgKEAP1, 10 nM	91.2
sgRNA knockout: sgKEAP1, 100 nM	84.6
sgRNA knockout: sgKEAP1, 1000 nM	26.6
sgRNA knockout: sgKEAP1, 10000 nM	27.1
sgRNA knockout: sgNFE2L2, 10 nM	84.3
sgRNA knockout: sgNFE2L2, 100 nM	88.5
sgRNA knockout: sgNFE2L2, 1000 nM	16.1
sgRNA knockout: sgNFE2L2, 10000 nM	19
sgRNA knockout: sgSLC35F2, 10 nM	90.4
sgRNA knockout: sgSLC35F2, 100 nM	77.9
sgRNA knockout: sgSLC35F2, 1000 nM	18
sgRNA knockout: sgSLC35F2, 10000 nM	24.6
sgRNA knockout: sgXBP1, 10 nM	95.2
sgRNA knockout: sgXBP1, 100 nM	90.6
sgRNA knockout: sgXBP1, 1000 nM	19.9
sgRNA knockout: sgXBP1, 10000 nM	22
